Reference: patent publication US20030130166A1, “Polynucleotide encoding a human junctional adhesion protein (JAM2)” (priority 1999, published 2003)
These are yes or no findings as the source states them, for the method shown. Some entries that bind do so weakly or less than the wild type. Tags and fused reporters may be left off the sequences shown.

Sequences of proteins named here, by UniProt entry; tags and fusion partners are left off. A change or cut given only in a name is not applied to a line headed by its entry.
UniProt P13612: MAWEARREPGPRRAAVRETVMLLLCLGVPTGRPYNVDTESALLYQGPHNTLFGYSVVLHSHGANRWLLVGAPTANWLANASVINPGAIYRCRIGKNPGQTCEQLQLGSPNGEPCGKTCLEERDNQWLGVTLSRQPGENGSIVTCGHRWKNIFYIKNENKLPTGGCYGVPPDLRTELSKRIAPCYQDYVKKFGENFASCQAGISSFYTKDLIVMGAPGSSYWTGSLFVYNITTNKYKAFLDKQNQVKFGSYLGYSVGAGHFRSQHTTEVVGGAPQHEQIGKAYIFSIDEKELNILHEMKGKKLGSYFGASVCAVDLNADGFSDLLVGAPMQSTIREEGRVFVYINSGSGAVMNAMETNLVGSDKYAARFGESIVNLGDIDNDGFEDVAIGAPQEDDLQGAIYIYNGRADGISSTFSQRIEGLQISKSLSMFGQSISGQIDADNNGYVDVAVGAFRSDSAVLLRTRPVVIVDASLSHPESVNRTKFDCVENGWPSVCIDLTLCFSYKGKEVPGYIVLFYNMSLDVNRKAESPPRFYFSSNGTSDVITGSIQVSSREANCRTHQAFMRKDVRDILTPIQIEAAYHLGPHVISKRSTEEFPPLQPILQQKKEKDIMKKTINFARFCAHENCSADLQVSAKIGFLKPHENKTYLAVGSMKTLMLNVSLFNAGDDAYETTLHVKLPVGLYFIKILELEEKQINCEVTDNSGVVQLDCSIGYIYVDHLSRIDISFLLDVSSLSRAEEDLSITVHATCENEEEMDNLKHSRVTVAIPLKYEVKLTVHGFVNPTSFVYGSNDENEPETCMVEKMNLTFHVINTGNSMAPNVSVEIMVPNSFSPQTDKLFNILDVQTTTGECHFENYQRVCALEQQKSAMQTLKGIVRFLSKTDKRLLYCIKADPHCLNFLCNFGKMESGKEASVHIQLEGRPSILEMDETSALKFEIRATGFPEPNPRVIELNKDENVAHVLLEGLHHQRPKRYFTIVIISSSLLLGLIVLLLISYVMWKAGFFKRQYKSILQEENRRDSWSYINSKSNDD

Columns and labels:
[1] = target: T1, human JAM3 (Junctional Adhesion Molecule 3), endogenous on HSB T cells (human) (UniProt Q9BX67); experiment: adhesion of calcein-labelled HSB cells to captured D1 fusion protein (FIG. 10)
T1 sequence (looked up): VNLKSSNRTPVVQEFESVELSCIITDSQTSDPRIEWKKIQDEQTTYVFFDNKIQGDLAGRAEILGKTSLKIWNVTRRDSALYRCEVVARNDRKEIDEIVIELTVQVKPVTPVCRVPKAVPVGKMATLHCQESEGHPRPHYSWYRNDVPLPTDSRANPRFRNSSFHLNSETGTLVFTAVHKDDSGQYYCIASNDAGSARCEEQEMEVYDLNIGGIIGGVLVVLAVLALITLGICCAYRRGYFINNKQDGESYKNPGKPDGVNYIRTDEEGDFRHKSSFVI

[2] = target: α4β1 integrin, endogenous on HSB T cells (UniProt P13612); experiment: adhesion of calcein-labelled HSB cells to captured D1 fusion protein in TBS+Mn (FIG. 10)

binding [1]: binds
binding [2]: binds
B1: secreted fusion protein of JAM2 Ig fold 1 (D1) (Fc fusion, not shown: a dimerising Fc or GST)
chain: FSAPKDQQVVTAVEYQEAILACKTPKKTVSSRLEWKKLGRSVSFVYYQQTLQGDFKNRAEMIDFNIRIKNVTRSDAGKYRCEVSAPSEQGQNLEEDTVTLEV
